Data as given in paper PMC5333363.
Results are given in words; binding and its absence hold for the method and conditions named. Binding seen in cells or lysates may run through a third protein. These calls come from enrichment with a bait or labelling near it, and not all partners need be listed.

By UniProt entry, the sequences of proteins in these tests, tags left out.
UniProt P22736: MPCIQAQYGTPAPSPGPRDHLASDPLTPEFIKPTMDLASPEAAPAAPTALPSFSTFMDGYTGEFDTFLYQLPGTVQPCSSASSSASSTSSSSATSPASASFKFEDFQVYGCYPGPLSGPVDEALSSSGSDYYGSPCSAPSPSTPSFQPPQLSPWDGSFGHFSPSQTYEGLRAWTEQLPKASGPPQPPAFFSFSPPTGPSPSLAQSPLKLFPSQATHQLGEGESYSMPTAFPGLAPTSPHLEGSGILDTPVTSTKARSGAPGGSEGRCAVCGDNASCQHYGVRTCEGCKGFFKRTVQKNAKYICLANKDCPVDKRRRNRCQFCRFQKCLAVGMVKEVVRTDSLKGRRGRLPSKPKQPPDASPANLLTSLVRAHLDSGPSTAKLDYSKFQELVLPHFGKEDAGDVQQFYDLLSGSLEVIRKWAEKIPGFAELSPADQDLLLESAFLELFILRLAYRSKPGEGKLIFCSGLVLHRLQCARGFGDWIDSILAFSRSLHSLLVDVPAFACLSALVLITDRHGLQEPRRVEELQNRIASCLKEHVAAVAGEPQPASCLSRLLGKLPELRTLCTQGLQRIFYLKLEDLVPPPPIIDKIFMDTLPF
UniProt P35558: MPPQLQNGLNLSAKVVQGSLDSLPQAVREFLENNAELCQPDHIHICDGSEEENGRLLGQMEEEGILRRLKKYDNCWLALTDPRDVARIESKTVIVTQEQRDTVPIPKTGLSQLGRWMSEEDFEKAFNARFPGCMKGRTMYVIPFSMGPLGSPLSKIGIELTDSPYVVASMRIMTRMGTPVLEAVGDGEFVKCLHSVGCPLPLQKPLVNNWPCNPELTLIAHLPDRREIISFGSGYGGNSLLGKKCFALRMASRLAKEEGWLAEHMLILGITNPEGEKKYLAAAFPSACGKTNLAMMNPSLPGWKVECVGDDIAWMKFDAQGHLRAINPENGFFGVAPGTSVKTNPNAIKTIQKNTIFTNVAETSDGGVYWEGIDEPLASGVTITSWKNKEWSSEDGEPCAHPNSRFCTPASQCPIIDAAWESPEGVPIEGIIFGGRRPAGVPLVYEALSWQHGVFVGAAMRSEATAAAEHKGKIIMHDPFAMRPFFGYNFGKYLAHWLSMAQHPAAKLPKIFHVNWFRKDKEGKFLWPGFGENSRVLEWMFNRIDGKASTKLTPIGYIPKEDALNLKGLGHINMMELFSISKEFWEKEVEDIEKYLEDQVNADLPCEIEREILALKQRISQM

Biological target: Flag-Nur77 (UniProt P22736)
Assay: affinity purification with mass spectrometry; Flag-Nur77 transfected (293T in the methods, SMMC-7721 in the results), precipitated with anti-Flag antibody, eluted with 200 ug/ml Flag peptide, SDS-PAGE with silver staining, visible band cut out, trypsin, LC-MS

binding: binds
Substance: PEPCK1, endogenous (from UniProt P35558 1-622) (enzyme)
